Tested on: 5xFAD mice
Assay: Y-maze spontaneous alternation task
Assay type: in vivo, mouse
Details: repeated injection for one week
Experimental: L-655,708 was dissolved at 1 mg/mL in DMSO, and frozen in storage aliquots. The working solution was diluted 10 times in normal saline solution. […] The last injection was administrated 30 minutes before behavioral test.
Spontaneous alternation performance was tested as described elsewhere (Oakley et al., J. Neurosci., 26(40):10129-10140 (2006)). […] It allows the assessment of hippocampus-dependent spatial working memory. Each mouse was placed in the center of a symmetrical Y-maze and was allowed to explore freely through the maze during an 8 minute session. The first two minutes were not included for data analysis because mice were exploring new environment. The total number and the sequence of arm entries in the last 6 minutes were recorded and analyzed. Arm entry was defined as the hind paws of the mice had been completely placed in the arm. Analysis was done blind. The percentage of alternation is the number of triads containing entries into all three arms divided by the maximum possible alternations (the total number of arms entered minus 2)×100.
A behavioral analysis was conducted to test the effect of enhanced tonic inhibition on the cognitive function of 5xFAD animals. […] Therefore, it was concluded that the abnormal tonic inhibition in DG is an important contributing factor toward the learning and memory deficit in AD.

CCOC(=O)c1ncn2c1C1CCCN1C(=O)c1cc(OC)ccc1-2 [L-655,708, 11,12,13,13a-tetrahydro-7-methoxy-9-oxo-9H-imidazo[1,5-a]pyrrolo[2,1-c][1,4]benzodiaz-epine-1-carboxylic acid, ethyl ester]
total number of arm entries, vs WT and 5xFAD groups: not different

COc1ccc(C(OCCN2CCC[C@H](C(=O)O)C2)(c2ccc(OC)cc2)c2ccc(OC)cc2)cc1 [SNAP-5114, (S)-1-[2-[tris(4-methoxyphenyl)methoxy]ethyl]-3-piperidinecarboxylic acid]
total number of arm entries, vs WT and 5xFAD groups: not different

From patent publication US10039756B2, “Reducing memory loss in mammals suffering from alzheimer's disease” (The Penn State Research Foundation, priority 2013, dated 2018)
